Binding data for one molecule are collected here from paper PMC8254492.

These are yes or no findings as the source states them, for the method shown. Binding seen in cells or lysates may run through a third protein. Some binding calls cover weakened binding; strength is not graded here.

The target of the assay is T1, BLUE LIGHT … 1 (BLUS1), full-length (Arabidopsis thaliana) (UniProt O23304).
T1 sequence: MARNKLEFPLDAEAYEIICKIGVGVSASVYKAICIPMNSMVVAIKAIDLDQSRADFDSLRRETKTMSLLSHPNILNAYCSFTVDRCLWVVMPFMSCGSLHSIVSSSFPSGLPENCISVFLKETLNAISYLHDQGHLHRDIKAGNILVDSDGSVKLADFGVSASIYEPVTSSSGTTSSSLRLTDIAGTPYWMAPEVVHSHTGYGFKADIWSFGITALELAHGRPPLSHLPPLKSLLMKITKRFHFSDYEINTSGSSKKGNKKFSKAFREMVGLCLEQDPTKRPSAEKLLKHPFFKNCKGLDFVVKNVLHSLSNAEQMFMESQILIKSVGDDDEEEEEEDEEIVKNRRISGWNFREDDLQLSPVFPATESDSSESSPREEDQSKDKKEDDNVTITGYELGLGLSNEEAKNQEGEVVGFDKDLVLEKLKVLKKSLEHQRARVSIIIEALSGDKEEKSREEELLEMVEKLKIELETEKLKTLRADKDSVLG
As to the kind of experiment: pull-down; in vitro pull-down of BHP with full-length and C-terminal truncated BLUS1; bait, buffer and conditions not shown (Supplemental Figure S7A).

B1: BLUE LIGHT-… H+-ATPASE PHOSPHORYLATION (BHP) (protein, UniProt Q93Z30 1-459)
chain: MEEDYQQPRFTIGRQSSMAPEKIPEPSVHSEEEVFEDGEEIDGGVRLMYLANEGDIEGIKELIDSGIDANYRDIDDRTALHVAACQGLKDVVELLLDRKAEVDPKDRWGSTPFADAIFYKNIDVIKILEIHGAKHPMAPMHVKTAREVPEYEINPSELDFTQSKEITKGTYCMAMWRGIQVAVKKLDDEVLSDDDQVRKFHDELALLQRLRHPNIVQFLGAVTQSNPMMIVTEYLPRGDLRELLKRKGQLKPATAVRYALDIARGMSYLHEIKGDPIIHRDLEPSNILRDDSGHLKVADFGVSKLVTVKEDKPFTCQDISCRYIAPEVFTSEEYDTKADVFSFALIVQEMIEGRMPFAEKEDSEASEAYAGKHRPLFKAPSKNYPHGLKTLIEECWHEKPAKRPTFREIIKRLESILHHMGHKRQWRMRPLTCFQNFEHKKKHNWDLSSHDGSSSGSHL
Turning to B1, the binding entry was “binds”.
